Drawing on article PMC8278077, this text covers binding for one substance.

Protein sequences, listed by entry. Tags and fused reporters are not part of them.
UniProt P21333: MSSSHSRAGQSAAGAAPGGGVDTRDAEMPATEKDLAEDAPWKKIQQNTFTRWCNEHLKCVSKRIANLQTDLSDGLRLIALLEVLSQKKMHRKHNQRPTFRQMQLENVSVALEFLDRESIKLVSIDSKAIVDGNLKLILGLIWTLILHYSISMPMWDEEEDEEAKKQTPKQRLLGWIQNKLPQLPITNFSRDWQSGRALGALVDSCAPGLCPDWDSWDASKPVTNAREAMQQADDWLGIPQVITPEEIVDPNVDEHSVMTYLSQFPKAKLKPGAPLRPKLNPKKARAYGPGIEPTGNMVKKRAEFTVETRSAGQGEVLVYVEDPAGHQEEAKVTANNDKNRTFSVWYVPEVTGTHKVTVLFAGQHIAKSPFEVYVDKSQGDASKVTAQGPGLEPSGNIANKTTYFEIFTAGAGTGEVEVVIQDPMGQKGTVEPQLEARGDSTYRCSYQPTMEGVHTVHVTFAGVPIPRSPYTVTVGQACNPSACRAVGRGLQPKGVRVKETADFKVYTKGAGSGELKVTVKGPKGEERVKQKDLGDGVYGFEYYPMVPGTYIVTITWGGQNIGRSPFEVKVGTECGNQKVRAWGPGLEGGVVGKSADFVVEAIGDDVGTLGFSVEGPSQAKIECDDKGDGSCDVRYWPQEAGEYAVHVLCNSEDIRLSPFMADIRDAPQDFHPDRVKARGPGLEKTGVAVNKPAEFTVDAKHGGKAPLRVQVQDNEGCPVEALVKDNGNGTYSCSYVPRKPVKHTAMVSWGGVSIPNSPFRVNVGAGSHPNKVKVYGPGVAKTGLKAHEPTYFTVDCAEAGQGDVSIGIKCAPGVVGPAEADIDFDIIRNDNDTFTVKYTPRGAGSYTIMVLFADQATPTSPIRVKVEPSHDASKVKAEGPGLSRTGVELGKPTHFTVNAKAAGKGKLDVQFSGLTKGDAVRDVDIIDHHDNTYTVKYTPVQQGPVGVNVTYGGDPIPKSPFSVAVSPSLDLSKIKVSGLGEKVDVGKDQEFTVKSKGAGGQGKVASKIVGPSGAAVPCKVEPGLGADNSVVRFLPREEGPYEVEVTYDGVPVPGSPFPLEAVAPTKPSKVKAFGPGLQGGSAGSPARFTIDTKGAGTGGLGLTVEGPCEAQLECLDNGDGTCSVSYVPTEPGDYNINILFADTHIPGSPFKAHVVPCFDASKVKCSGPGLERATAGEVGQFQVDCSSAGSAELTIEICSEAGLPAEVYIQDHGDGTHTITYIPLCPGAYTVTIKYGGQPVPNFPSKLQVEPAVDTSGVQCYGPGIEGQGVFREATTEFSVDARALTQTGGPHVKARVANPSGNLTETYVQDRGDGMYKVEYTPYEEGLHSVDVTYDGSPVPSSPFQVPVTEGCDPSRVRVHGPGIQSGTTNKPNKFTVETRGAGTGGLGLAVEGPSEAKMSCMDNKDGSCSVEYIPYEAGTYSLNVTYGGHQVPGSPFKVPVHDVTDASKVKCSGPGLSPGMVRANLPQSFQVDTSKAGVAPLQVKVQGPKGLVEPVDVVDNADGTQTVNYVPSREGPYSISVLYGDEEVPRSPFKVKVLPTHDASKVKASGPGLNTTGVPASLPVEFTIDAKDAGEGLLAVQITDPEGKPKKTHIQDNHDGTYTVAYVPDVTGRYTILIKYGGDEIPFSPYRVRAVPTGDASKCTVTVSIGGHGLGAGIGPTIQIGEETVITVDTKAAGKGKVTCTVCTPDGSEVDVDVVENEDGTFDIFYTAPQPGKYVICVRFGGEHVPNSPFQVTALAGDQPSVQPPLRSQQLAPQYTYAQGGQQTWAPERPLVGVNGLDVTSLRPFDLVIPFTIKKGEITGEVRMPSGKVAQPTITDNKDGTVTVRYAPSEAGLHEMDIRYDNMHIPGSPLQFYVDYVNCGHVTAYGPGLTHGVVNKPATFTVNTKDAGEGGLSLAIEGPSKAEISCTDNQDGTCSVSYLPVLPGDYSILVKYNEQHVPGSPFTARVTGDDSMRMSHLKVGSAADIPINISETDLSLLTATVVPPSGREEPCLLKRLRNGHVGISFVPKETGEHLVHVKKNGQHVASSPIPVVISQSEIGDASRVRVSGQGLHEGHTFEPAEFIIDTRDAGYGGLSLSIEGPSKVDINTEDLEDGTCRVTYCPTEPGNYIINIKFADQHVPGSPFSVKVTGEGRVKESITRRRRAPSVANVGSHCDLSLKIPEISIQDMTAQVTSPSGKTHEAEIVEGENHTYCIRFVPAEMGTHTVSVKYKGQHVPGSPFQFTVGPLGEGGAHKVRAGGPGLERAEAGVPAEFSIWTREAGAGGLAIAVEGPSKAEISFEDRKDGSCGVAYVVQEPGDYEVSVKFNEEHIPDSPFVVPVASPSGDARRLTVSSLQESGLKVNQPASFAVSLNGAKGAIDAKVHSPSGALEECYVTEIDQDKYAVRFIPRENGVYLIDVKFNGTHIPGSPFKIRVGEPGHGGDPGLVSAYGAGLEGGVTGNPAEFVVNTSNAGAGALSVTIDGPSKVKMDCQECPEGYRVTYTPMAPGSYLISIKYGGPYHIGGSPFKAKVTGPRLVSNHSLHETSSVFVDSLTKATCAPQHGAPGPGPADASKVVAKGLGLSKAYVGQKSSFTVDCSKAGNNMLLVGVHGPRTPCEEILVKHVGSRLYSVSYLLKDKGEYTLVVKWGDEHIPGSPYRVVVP

This test deals with T1, Latexin (LXN), endogenous in HUVECs (human (endogenous in HUVEC)) (UniProt Q9BS40).
T1 sequence: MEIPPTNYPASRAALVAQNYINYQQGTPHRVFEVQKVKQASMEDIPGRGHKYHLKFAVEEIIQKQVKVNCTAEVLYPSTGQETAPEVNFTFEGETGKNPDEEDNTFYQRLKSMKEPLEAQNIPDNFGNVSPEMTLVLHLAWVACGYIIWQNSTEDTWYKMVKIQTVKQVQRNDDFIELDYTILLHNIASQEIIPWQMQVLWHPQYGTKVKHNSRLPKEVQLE
The experiment in a line: affinity purification with mass spectrometry; HUVEC lysate, immunoprecipitation with anti-LXN antibody, SDS-PAGE, bands excised, trypsin digestion, LC-MS/MS (LTQ).

Results are given in words; binding and its absence hold for the method and conditions named. In cells and extracts the contact can be indirect. A yes stands for co-enrichment or nearness to the bait. Other partners may have been found.

Take “Filamin A (FLNA), endogenous in HUVECs (from UniProt P21333 1-2647)”: the binding entry is “binds”.
